Primary screen of a compound library

Source: ChEMBL document CHEMBL3988442, “University of Dundee, Small-Polar-MMV Screening Library” (2021).

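Viability assay of Plasmodium falciparum sporozoites; the read-out is not stated. The concentration is filed as 10 mM, unlikely as a test dose, so the dose is not known. The record gives no direction; compounds that gave an IC50 in retests scored well above the rest, so higher reads as lower viability. Strong results were mostly tested again. About 34,000 compounds were tested under these conditions; 0.84% (about 280) showed 50% or more at least once.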

Results are given as percent effect. How 0% and 100% were set is not recorded. Most values in the screen are low, and negative values occur. The compounds are a random part of those screened. Two or more numbers in one place are separate tests of the same structure; such repeats can differ widely.

* [H][C@]12CCCC(=O)N[C@@]1(C)CCCCN2C(=O)c1cn2cc(C)ccc2n1 : -1.092%
* NC(=O)CN1CCC2(CC1)CC(=O)c1ccc3ccccc3c1O2 : 14.56% and 23.77% and 28.36%
* COc1ccc(F)cc1-c1ccccc1CC1CNCCNC1=O.Cl (centres undefined) : 0.8341%
* CN1CCN(CC(=O)NCc2ccco2)Cc2ccccc21 : 16.32%
* CC(C)Oc1cccc(CN2CCC(c3n[nH]c4ncccc34)CC2)c1 : 12.17%
* CNC(=O)CC1c2cccnc2C(=O)N1Cc1ccccc1 (centres undefined) : 0.8612%
* CN1CCN(c2ccc(F)cc2NC(=O)NCc2ccon2)CC1 : -5.45%
* O=C(C1CCC1)N1CCC(=O)N(C2CC2)Cc2cc(F)ccc21 : 8.992%
* CC1c2ncc(CNC(=O)C3CC3)n2CCN1Cc1ccsc1.O=C(O)C(F)(F)F (centres undefined) : 3.541%
* Cc1nc(CN2CCCn3cnc(COC(C)C)c3C2)cs1.O=C(O)C(F)(F)F : 6.229%
* CCc1n[nH]c(C2CN(C(=O)c3csnn3)CCO2)n1 (centres undefined) : -9.249%
* CC(NC(=O)N(C)C1CC1)c1ccc(Oc2cccnc2)c(F)c1 (centres undefined) : -13.83%
* O=C(CCOc1cccc(F)c1)N1CCCC(n2cccn2)C1 (centres undefined) : -4.524%
* CCOc1ccc(Cl)c(C(=O)NCCC(=O)Nc2ccncc2)n1 : 12.8%
* CCOc1ccc(C#N)cc1NCC(=O)OC : 2.487%
* Cc1ncc2c(n1)CN(CC(=O)Nc1c(C)nn(C)c1C)CC2 : -2.037%
* Cc1c(CN2CCCC(n3c(=O)oc4ccccc43)C2)cnn1C (centres undefined) : 2.393%
* CN(C)C1CCC2(CCN(Cc3cccnc3)CC2)c2ccccc21.O=C(O)C(F)(F)F.O=C(O)C(F)(F)F.O=C(O)C(F)(F)F (centres undefined) : -7.106%
* [H][C@]12CCCCN1CCC[C@H]2CNC(=O)CCn1ccc2cc(C)ccc21 : -7.018%
* CC(C)C(C)NC(=O)c1cc(Br)c2c(c1)OCCO2 (centres undefined) : -1.84%
* Clc1ccccc1-c1nc(CNCCn2cccn2)cs1 : -25.17% and 4.782% and -37.62%
* O=S(=O)(C1CC1)N1CCC2(CN(c3ncccn3)C2)C1 : 6.729%
* CC(C)Nc1nc2c(s1)C(=O)CN(C)C2 : -46.32%
* COCCC(=O)N1CC2(CCN(Cc3ccccc3Cl)CC2)C1.O=C(O)C(F)(F)F : -5.469%
* Cc1nnc(NCC2(c3ccccc3)CC2)c(C#N)c1C : -11.41%
* CCn1cc(NC(=O)CN2CCC(Oc3ccccc3C)CC2)c(C)n1 : 1.902%
* CN(C(=O)c1ccn(C)n1)[C@@H]1CCC[C@@H](Oc2ccccc2)[C@@H]1O : 6.96%
* COCCOc1cccc(C(=O)N2CCCC(n3ccnc3C)C2)c1 (centres undefined) : -13.51%
* [H][C@]12C[C@H](C(=O)NC)N(S(C)(=O)=O)[C@@]1([H])CN(C(=O)c1occc1C)C2 : 14%
* [H][C@]12C[C@H](C(=O)NC)N(C)[C@@]1([H])CN(C(=O)c1cnc(C)cn1)C2 : 4.514%
* COc1c(CNCC(O)c2cccc(F)c2)c(C(C)C)nn1C (centres undefined) : -18.03%
* CN1CCCC1CCn1ccnc1-c1nc(-c2ccccc2)no1 (centres undefined) : 77.95% and 70.89%
* COc1ccccc1CN(C)C(=O)CN1CC(n2nc(C)cc2C)C1 : 7.108%
* COc1c(CNCc2ccccc2-n2ccnc2)c(C)nn1C : 8.49%
* Cc1nc(C)n(CC2CCCN2Cc2nc3ccccc3s2)n1 (centres undefined) : 14.67%
* Cc1ccc(S(=O)(=O)NC(C)C#N)cc1Br (centres undefined) : -13.06%
* CCN(C1CCN(Cc2ncc(C(C)(C)C)o2)CC1)S(C)(=O)=O : 12.39%
* NC1(CN2CCOCC2)CCCCC1 : -4.348%

The last 2 entries again:

- CCN(C1CCN(Cc2ncc(C(C)(C)C)o2)CC1)S(C)(=O)=O | 12.39%
- NC1(CN2CCOCC2)CCCCC1 | -4.348%